Data as given in patent publication US20200079842A1.
No constants are given. Whether binding was seen depends on the method and setting. Some results given as binding are weak or reduced against the parent protein; the word gives no strength.

Experiments:
[1] = biological target: FLAG-tagged netrin-1 (Adipogen) (human) (UniProt O95631); assay: ELISA-type assay, netrin-1 coated on the plate (legend paragraph 28: FLAG-tagged Netrin-1, APOTECH; Example 3: His-tagged Netrin-1, R&D), anti-mouse IgG-HRP, luminescence
[2] = biological target: FLAG-tagged netrin-1 (Adipogen) (human) (UniProt O95631); assay: competition ELISA: FLAG-tagged netrin-1 with rising 4C11 on coated UNC5B-Fc, bound netrin-1 detected with anti-FLAG-HRP, luminescence
[3] = biological target: netrin-1 mutant K358L (human) (UniProt O95631); assay: in vitro binding assay of netrin-1 mutants

Binder	binding [1]	binding [2]	binding [3]
murine 4C11 (IgG1) antibody (antibody, V domains shown) VH: QAYLQQSGAELVRPGASVKMSCKASGYTFTSYNMHWVKQTPRQGLEWIGAIYPGNGDTSYNQKFKGKATLTVDKSSSTAYMQLSSLTSEDSAVYFCARGGTGFAYWGQGTLVTVSA VL: SIVMTQTPKFLLVSAGDRVTITCKASQSVSNDVAWYQQKPGQSPKLLIYYASNRYTGVPDRFTGSGYGTDFTFTISTVQAEDLAVYFCQQDYSSPWTFGGGTKLEIKR	binds	binds	
HUM03 (antibody, human IgG1, V domains shown) VH: QVQLQQSGPGLVKPSQTLSLTCAISGYTFTSYNMHWVRQATGQGLEWMGAIYPGNGDTSYNQKFKGRLTISKDTSKNQVVLTMTNMDPVDTATYYCARGGTGFAYWGQG VL: DIQMTQSPSSLSASVGDRVTITCKASQSVSNDVAWYQQKPGQAPRLLIYYASNRYTGIPPRFSGSGYGTDFTLTINNIESEDAAYYFCQQDYSSPWTFGQG			binds
